Results published in patent publication US20190038587A1, “DNA Methylation Landscapes of Post-Traumatic Stress Disorder (PTSD) Susceptibility and Resilience and Novel Therapeutics of PTSD Derived Thereof” (priority 2016, published 2019).
For at least one compound, name, drawing or mass did not settle the structure.

Experiments:
[1] = system: susceptible rats (PTSD-like); assay: Rat PTSD model (predator scent, incubation of fear): freezing behavior in open field after third reminder; type: in vivo, Sprague-Dawley rats; settings: Embodiment 4, SAM 25 mg/kg and/or retinoic acid 2 mg/kg i.p. 24 h and 1 h before Re-3, vs susceptible-SAM and susceptible-saline, FIG. 7C
Protocol: Adult male Sprague-Dawley rats (250-270 gr; Harlan, Rehovot, Israel) were used and housed under conditions of constant temperature (22° C.) and 50% humidity, with a 12-h light-12-h dark cycle. The rats were allowed to habituate to the animal house for 7 days (acclimation). They were housed three per cage, two experimental rats together with a third companion rat. The same three rats remained together until the end of the study. Food and water were provided ad libitum. All experiments were performed between 08:00 and 14:00 in daylight. […]
The model used in this research is based on Kesner et al., 2009^32. […] The animals are analyzed according to three clinically-relevant clusters of symptoms: manifestation of freezing behavior when (a) situated alone in an open field paradigm (re-experiencing), (b) situated with a habituated companion (social interaction) and (c) after exposure to a hyperarousal event^33. The range of each measured behavioral procedure was determined for all animals after the base-line (week 3). The data collected at baseline was analyzed and the explore procedure was applied using SPSS 11 to define the range of the population. […]
After 14 days (Day 1) of habituation, baseline freezing levels of experimental and naive rats were measured prior to stress exposure. […]

long term potentiation = settings: literature; cited from earlier work

SMILES	freezing behavior during the 'hyperarousal' test [1]	effect on long term potentiation (long term potentiation)
CC1=C(/C=C/C(C)=C/C=C/C(C)=C/C(=O)O)C(C)(C)CCC1 [RA, retinoic acid]	inhibits the hyperarousal phenotype	
O=c1ncccn1[C@@H]1O[C@H](CO)[C@@H](O)[C@H]1O [zebularine]		inhibited long term potentiation
